# Experimental data: PubChem BioAssay AID2685 (National Center for Advancing Translational Sciences (NCATS), 2010)
# The list shows a part of the results. Further columns of the screen follow, without active or inactive calls. Compounds called inactive in the main read-out are mostly missing here. The note in brackets gives the kind of curve behind each potency; many fits are weak.
# Experiment: qHTS Assay for Lipid Storage Modulators in Drosophila S3 Cells;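 on cell number change: cells counted by Cell Tracker Red CMTPX staining in the red channel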
# Details: BODIPY lipid droplet fluorescence, 18-24 h; for cell number change: measured here: cell count max response, cells fed with added oleic acid
# Procedure, shortened: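 Drosophila S3 cells got compounds at several concentrations plus oleic acid (400 uM solution). Laser-scanning cytometry with 488 nm excitation read lipid droplets at 500-530 nm and cells at 575-640 nm. Percent activity was relative to 20 uM Triacsin C.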
# [1] = measured here: cell number channel AC50, cells fed with added oleic acid
# [2] = measured here: lipid fluorescence (Fed channel) AC50, cells fed with added oleic acid
Compound,cell number change [%],AC50 [1],AC50 [2]
COc1ccc(S(=O)(=O)N(C)c2ccc(C(=O)NCc3ccncc3)cc2)cc1,-19.8,"820 nM [rising, partial curve]","6510 nM [rising, single point]"
CCOC(=O)C1CCN(C(=O)Cn2nc(C)n3c(cc4cc(C)ccc43)c2=O)CC1,-17,,
CC1CCCC(C)N1C(=O)COc1ccc(C(=O)N/N=C/c2ccc(C(=O)O)cc2)cc1 (centres undefined),-66.4,,
COc1cc(-c2c(C#N)c(N)nc3c2CCCC3)ccc1O,14.6,"2910 nM [rising, single point]","411 nM [rising, partial curve]"
Cn1c(SCC(=O)Nc2cccc(S(=O)(=O)NC3=NCCCCC3)c2)nnc1-c1ccccc1,30.8,"13000 nM [rising, partial curve, poor fit]","2060 nM [rising, partial curve, poor fit]"
CCc1nc2c(sc3nc4c(cc32)COC(C)(C)C4)c(=O)n1Cc1ccco1,-14.1,,"29100 nM [falling, single point]"
CC[n+]1c(/C=C2\C=C(C)CC(C)(C)C2)sc2ccccc21,8.9,,"29100 nM [rising, single point]"
CC(C)C(NC(=O)c1ccc(F)cc1)C(=O)N1CCC1 (centres undefined),11.2,,"6510 nM [falling, single point]"
O=C(c1ccccc1)c1cnc(-c2ccccc2)s1,7.73,"411 nM [falling, partial curve, poor fit]",
CC1(C)Cn2c(nnc2-c2cccc(O)c2)S1,0.516,,"103 nM [falling, full curve, poor fit]"
CC1=C(C(=O)Nc2ccccc2C(=O)NC2CCCCC2)SCCO1,7.78,,
COc1ccc(NC(=O)CN(C)C(=O)c2n[nH]c3ccccc23)cc1,21.3,,
CCOc1cc(N2CCOCC2)c(OCC)cc1NC(=O)[C@H](C)N1C(=O)C2CC=CCC2C1=O (some centres undefined),-17.5,,"116 nM [falling, full curve, poor fit]"
COc1ccc(N(CC(=O)N/N=C(\C)c2ccccc2)S(=O)(=O)c2ccccc2)cc1,,,"3260 nM [rising, partial curve]"
CC(=O)C1=C(O)C(=O)N(Cc2ccccc2)C1c1cccs1 (centres undefined),-69.4,"23100 nM [falling, single point]","1640 nM [falling, full curve]"
COc1cccc(NC(=O)CN2C(=O)NC3(CCCC3)C2=O)c1,17.3,,"820 nM [rising, full curve, poor fit]"
CCC(C)Sc1cccc(-c2nc3ccc(Cl)cn3c2NCc2ccccc2)c1 (centres undefined),-0.33,"4.11 nM [falling, full curve, poor fit]","5.8 nM [falling, full curve, poor fit]"
COc1ccc(-c2c(-c3ccc(OCC(=O)NN)cc3O)n[nH]c2C)cc1,2.36,"146 nM [falling, full curve, poor fit]",
Cc1ccc(S(=O)(=O)N2CCN(C(=O)CSc3nnc(C)c(=O)[nH]3)CC2)cc1,3.02,,"651 nM [falling, full curve, poor fit]"

# Look-ups from the entries so far:
# cell number change [%] with CC1(C)Cn2c(nnc2-c2cccc(O)c2)S1 is entered as 0.516
# AC50 [2] with COc1ccc(S(=O)(=O)N(C)c2ccc(C(=O)NCc3ccncc3)cc2)cc1 is entered as 6510 nM [rising, single point]
# AC50 [2] with CC(=O)C1=C(O)C(=O)N(Cc2ccccc2)C1c1cccs1 (centres undefined) is entered as 1640 nM [falling, full curve]

# Carrying on:

Compound,cell number change [%],AC50 [1],AC50 [2]
COc1ccc(-c2cc(-c3n[nH]c(=S)n3-c3ccccc3Cl)[nH]n2)cc1,62.5,"29100 nM [rising, single point]","23100 nM [rising, single point]"
NNc1nc2ccccc2nc1C(F)(F)F,,,"6510 nM [falling, single point]"
O=C(c1cc(C2CC2)nn1-c1ccccc1)N1CCN(c2ccccn2)CC1,,"6510 nM [rising, single point]",
CC(=O)N/N=C(/C)c1ccc(NC(=O)c2csc(C)c2C)cc1,8.98,,
Cn1nnnc1SCCNCc1ccccc1OCc1ccc(Cl)cc1,-81.6,"4610 nM [falling, single point]","164 nM [rising, full curve, poor fit]"
O=C(CNS(=O)(=O)c1ccc(Br)cc1)NCc1ccncc1,-2.92,,
O=C(Cn1cnc2c(nnn2-c2ccccc2)c1=O)NCCc1ccccc1,,,"130 nM [falling, full curve, poor fit]"
COc1cc(C(=O)OCC(=O)NC2CC2)ccc1OCCC(C)C,-2.69,,"580 nM [rising, single point]"
Cc1ccc2[nH]cc(CCNC(=O)c3cccnc3)c2c1,43.2,"1030 nM [rising, full curve]","3260 nM [rising, partial curve]"
O=C(CN1CCN(c2ccccc2)CC1)Nc1ccc2c(c1)CCC2,-22.1,,"14600 nM [rising, single point]"
CCOCCCNS(=O)(=O)Cc1ccccc1,-27.5,"2310 nM [falling, full curve, poor fit]","3660 nM [falling, full curve]"
CCOc1ccccc1C(C(=O)NC1CCCCC1)N(C(=O)c1csnn1)C1CC1 (centres undefined),-7.14,,
CCOC(=O)/C(=N/Nc1ccccc1)c1csc(Nc2ccccc2)n1,-69.4,"29100 nM [falling, single point]","3260 nM [rising, partial curve]"
COc1ccc(OC)c(Nc2cc(C)nc3ccccc23)c1,-3.91,,"6510 nM [falling, single point]"
COC(=O)c1sccc1NC(=O)CC1C(=O)NCCN1C(=O)Nc1ccc(C(F)(F)F)cc1 (centres undefined),4.52,,"103 nM [falling, full curve, poor fit]"
CCCC(C(=O)Nc1ccc(S(=O)(=O)N2CCCC2)cc1)c1ccccc1 (centres undefined),-32.4,"2590 nM [falling, full curve, poor fit]","29100 nM [falling, partial curve, poor fit]"
Cc1nonc1NC(=O)CSc1nnc(-c2ccoc2C)n1CC(C)C,-3.27,,"2310 nM [rising, full curve, poor fit]"
Cc1cn(-c2ccccc2)c(C)c1/C=N\Nc1nc(N2CCOCC2)nc(N2CCOCC2)n1,-24.7,,"1300 nM [falling, full curve]"
